These are yes or no findings as the source states them, for the method shown. Binding seen in cells or lysates may run through a third protein. Some binding calls cover weakened binding; strength is not graded here.
How the values were obtained:
[1] = target: T1, BLM-TOP3A-RMI (BTR) complex (human, UniProt P54132 1-1417; Q13472 1-1001; Q9H9A7 1-625; Q96E14 2-147, limits assumed); experiment: competition co-IP: peptide added to HEK-293 Flag-FANCM lysate, Flag IP, TOP3A immunoblot
T1 construct: Endogenous complex in cell lysates (BLM, TOP3A, RMI1, RMI2); In the co-IPs it is read out by TOP3A and/or RMI1 immunoblot
Description: For co-IP experiments involved the ER-inducible system, cells were lysed in IP buffer (20 mM Tris-HCl pH 7.5, 100 mM NaCl, 10% (v/v) glycerol, 0.5 mM EDTA, 1 mM DTT) supplemented with 1× mammalian protease inhibitor cocktail (Sigma Aldrich) and 50 U/ml Benzonase (Novagen) for 2 h at 4° C., with or without MM2 peptide variants (Mimotopes). Following lysis, NaCl concentration was increased to 250 mM, then the lysate cleared at 16,000×g for 15 mins. Supernatant was then mixed with 1 μg of α-FANCM (Abcam) or α-ER (Santa Cruz Biotechnology) and 20 μl protein G sepharose (GE Healthcare), or using α-Flag M2 agarose (Sigma Aldrich). Following 3 h of mixing at 4° C., beads were washed 4× with IP buffer, and 1× with 50 mM NH₄(CO₃)₂, 0.5 mM EDTA, then eluted with 500 mM NH₄OH (pH 11.0), 0.5 mM EDTA. Samples were then lyophilized and resuspended in 1×LDS loading buffer (Life Technologies) prior to immunoblotting.
To explore the possibility of specifically targeting ALT cell viability through FANCM, two approaches to disrupt the FANCM-BTR complex were adopted. […] To investigate the effects of FANCM-BTR complex disruption in ALT cells, the MM2 peptide was rendered functionally dependent on tamoxifen by fusion to the C-terminus of the estrogen receptor (MM2-ER) (FIG. 11a). […]

Sequences of proteins named here, by UniProt entry; tags and fusion partners are left off. A change or cut given only in a name is not applied to a line headed by its entry.
UniProt P54132: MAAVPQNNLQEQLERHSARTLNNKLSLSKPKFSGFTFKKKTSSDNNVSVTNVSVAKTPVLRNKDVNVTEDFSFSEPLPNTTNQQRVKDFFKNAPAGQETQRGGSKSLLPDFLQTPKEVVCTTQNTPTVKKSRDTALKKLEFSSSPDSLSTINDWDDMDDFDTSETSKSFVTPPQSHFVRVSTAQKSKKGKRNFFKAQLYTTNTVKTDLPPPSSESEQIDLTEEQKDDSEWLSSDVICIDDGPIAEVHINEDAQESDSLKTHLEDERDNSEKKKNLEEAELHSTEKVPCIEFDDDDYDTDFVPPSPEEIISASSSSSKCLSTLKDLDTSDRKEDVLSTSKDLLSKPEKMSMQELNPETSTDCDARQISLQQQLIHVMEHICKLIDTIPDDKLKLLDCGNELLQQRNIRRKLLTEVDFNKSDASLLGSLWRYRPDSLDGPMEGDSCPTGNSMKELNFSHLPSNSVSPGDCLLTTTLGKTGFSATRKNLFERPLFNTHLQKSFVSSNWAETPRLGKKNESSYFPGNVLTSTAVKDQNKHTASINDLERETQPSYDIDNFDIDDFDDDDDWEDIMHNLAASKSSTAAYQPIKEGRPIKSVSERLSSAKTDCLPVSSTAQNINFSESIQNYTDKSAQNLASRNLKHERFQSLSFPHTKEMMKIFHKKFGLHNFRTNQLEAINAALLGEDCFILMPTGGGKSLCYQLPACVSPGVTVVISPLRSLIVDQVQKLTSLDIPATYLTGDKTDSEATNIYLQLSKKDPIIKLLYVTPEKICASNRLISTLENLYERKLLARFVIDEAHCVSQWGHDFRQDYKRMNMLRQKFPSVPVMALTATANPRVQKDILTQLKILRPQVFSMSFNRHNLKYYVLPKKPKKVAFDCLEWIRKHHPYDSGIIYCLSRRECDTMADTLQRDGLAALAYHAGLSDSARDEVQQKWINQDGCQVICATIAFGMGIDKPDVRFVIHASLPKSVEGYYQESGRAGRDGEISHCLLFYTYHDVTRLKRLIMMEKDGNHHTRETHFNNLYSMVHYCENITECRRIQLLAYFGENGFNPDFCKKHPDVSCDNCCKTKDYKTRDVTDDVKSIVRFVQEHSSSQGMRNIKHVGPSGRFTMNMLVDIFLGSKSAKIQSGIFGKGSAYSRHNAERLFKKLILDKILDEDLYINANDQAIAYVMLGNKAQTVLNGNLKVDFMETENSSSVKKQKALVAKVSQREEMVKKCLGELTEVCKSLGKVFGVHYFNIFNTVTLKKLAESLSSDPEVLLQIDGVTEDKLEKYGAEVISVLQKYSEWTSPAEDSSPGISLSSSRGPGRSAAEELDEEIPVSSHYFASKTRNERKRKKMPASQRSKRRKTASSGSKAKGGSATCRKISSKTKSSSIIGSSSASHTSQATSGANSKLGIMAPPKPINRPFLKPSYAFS

[2] = target: T1, BLM-TOP3A-RMI (BTR) complex; experiment: competition co-IP: peptide added to cellular lysates, Flag-FANCM IP

binding [1]: binds
binding [2]: binds
Binder: EDIFDCSRDLFSVTFDLGFCSPDSDDEILEHTSD [wildtype human FANCM MM2 peptide (chemically synthesized, 28 amino acids of the MM2 domain)]
